The results in this text go back to patent publication US20250136556A1, “NOVEL MODULATORS OF THE ARYL HYDROCARBON RECEPTOR AND METHODS OF USE THEREOF” (Allianthera (Suzhou) Biopharmaceutical Co., Ltd., priority 2021, published 2025).

Chains of the proteins cited; added tags and fusions are not shown. Residues count along the entry.
UniProt P35869, 11-848 limits assumed: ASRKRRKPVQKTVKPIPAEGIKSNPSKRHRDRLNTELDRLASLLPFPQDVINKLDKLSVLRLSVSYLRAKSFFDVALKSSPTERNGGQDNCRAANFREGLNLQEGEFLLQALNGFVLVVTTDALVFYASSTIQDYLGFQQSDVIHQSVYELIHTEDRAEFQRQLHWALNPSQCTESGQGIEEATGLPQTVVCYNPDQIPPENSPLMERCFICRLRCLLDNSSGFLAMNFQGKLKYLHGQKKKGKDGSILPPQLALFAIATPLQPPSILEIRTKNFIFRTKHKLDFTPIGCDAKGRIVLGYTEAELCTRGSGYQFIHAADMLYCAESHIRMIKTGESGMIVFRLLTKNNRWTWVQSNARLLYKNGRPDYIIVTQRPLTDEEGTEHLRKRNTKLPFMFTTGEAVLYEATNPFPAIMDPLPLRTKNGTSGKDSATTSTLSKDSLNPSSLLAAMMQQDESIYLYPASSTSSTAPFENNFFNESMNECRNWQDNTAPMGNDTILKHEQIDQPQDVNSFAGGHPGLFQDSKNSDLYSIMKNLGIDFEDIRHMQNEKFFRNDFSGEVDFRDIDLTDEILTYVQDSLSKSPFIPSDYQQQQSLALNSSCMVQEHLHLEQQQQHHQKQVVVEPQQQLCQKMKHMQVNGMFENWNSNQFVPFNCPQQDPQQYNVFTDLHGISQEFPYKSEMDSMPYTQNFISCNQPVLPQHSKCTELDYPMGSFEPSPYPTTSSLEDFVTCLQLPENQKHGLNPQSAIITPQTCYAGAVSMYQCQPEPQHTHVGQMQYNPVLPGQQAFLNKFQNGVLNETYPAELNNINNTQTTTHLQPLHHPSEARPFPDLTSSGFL

The match of structure and compound is tentative.

The target in data set [1] is Human Aryl Hydrocarbon Receptor (AHR) (Homo sapiens, UniProt P35869). The data set is described as follows: AHR agonist reporter assay in human cell line (INDIGO luciferase reporter).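 Note: firefly luciferase luminescence read on a plate reader, values normalized against positive and negative controls.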 To be noted: read-out: AHR abEC50; reporter cells, 24 hours incubation, second line of cell. Type of data set: cell-based. On the technique in general: Reporter assays use an easily measured gene product as a stand-in for the process of interest.

In data set [2] the test system is IL-6 gene expression in human primary M1 macrophage cells. The data set is described as follows: AHR-regulated IL-6 inhibition in human primary M1 macrophage (qPCR). The note with it: read-out: M1 assay IL6 -IC50, LPS/IFN-gamma/GM-CSF, 24 hours. Type of data set: cell-based. How it is done:
Human M1 macrophage was differentiated from PBMC. Briefly, at day 1, monocytes were isolated from human PBMC using EasySe Human Monocyte Enrichment Kit without CD16 Depletion (Stemcell, 19058). The isolated monocytes were seeded at 3×10^7 cells in 15 cm dish using 30 ml medium containing 50 ng/ml GM-CSF (R&D, 215-GM-050/CF). At day 5, 30 ml fresh medium containing 50 ng/ml GM-CSF was added. At day 8, 1.5×10^5 cells/well were re-seeded into 24 wells plate, and 500 ul medium containing 10 ng/ml LPS (Sigma, L7770), 20 ng/ml IFN-gamma (PeproTech, 300-02), 50 ng/ml GM-CSF and the test compounds was added. […] The IL-6 expression was inhibited with AHR agonists described in literature as the positive inhibition control, alternatively the un-stimulated cells were used as the negative inhibition control. […] The primers for human GAPDH (F: […]; R: […]) and human IL-6 (F: […]; R: […]) were used to analyze fold expression of IL-6 of GAPDH by quantitative PCR.
(In qPCR the cycle at which signal appears reflects the starting amount.)

Regarding `CC(C)c1c(O)cc(-c2ccc3cnc(N)cc3c2)cc1O`, the EC50 in data set [1] is over 100 nM.

For the compound `CC(C)c1c(O)cc(-c2cc(F)c3cnccc3c2)cc1O`, the EC50 in data set [1] was 1.29 nM. Besides, in data set [2], the IC50 worked out at 3.11 nM.

On to `Cc1ccnc2c(-c3cc(O)c(C(C)C)c(O)c3)ccnc12`, for which, in data set [1], the EC50 was over 100 nM.

Take `CC(C)c1c(O)cc(-c2ccc3cnccc3c2F)cc1O`: the EC50 in data set [1] turned out to be 2.47 nM. Moreover, in data set [2], the IC50 came to 1.18 nM.
